Experimental data from the supplement of paper PMC11732987, “Enantioselective OTUD7B fragment discovery through chemoproteomics screening and high-throughput optimisation” (Communications Chemistry, 2025).
This is one part of the list. The data scatter; read single values as rough.

These targets were tested with ClCC(=O)N[C@@H]1CCCc2ccccc12 (assay: log2 mean competition ratio of IA-DTB cysteine labelling (DMSO/compound) (log2 ratio); higher = stronger cysteine engagement by compound). Conditions: 50 µM; treatment time: 4 h; cell line lysate: HEK293T.
Protocol: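 IA-DTB competitive cysteine chemoproteomics in HEK293T RIPA lysate. Lysates were treated with compound 29 or 30 at 50 or 200 µM for 4 h, then IA-DTB (500 µM, 1 h), trypsin-digested, NeutrAvidin-enriched and analysed by diaPASEF. Competition ratio = intensity DMSO / intensity compound (n=4 treated, n=64 DMSO); binding: mean log2 CR ≥ 1 and p ≤ 0.05 plus QC filters. Target is the cysteine site.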
In the case of FANCI C875 (UniProt Q9NVI1), the “log2 mean competition ratio” value is reported as -0.0131.
With ELP1 C744 (UniProt O95163) the “log2 mean competition ratio” value was -0.0221.
In the case of ELP1 C820 (UniProt O95163), the “log2 mean competition ratio” value is reported as -0.256.
For EXOSC3 C67 (UniProt Q9NQT5), the “log2 mean competition ratio” value was -0.132.
In the case of FAM91A1 C141 (UniProt Q658Y4), the “log2 mean competition ratio” value is reported as -0.0402.
For EMSY C194 (UniProt Q7Z589), the “log2 mean competition ratio” value was 0.275.
In the case of FAM117B C483 (UniProt Q6P1L5), the “log2 mean competition ratio” value is reported as -0.0698.
In the case of EXOC4 C100 (UniProt Q96A65), the “log2 mean competition ratio” value is reported as -0.048.
ETAA1 C637(C666) (UniProt Q9NY74) was tested, and the “log2 mean competition ratio” value was -0.176.
ELP1 C23 (UniProt O95163) was tested, and the “log2 mean competition ratio” value was 0.201.
In the case of FAM120B C499 (UniProt Q96EK7), the “log2 mean competition ratio” value is reported as -0.0861.
ERCC8 C88 (UniProt Q13216) was tested, and the “log2 mean competition ratio” value was -0.216.
EME1 C248 (UniProt Q96AY2) was tested, and the “log2 mean competition ratio” value was -0.249.
ETV6 C8 (UniProt P41212) was tested, and the “log2 mean competition ratio” value was -0.203.
For EPC1 C797 (UniProt Q9H2F5), the “log2 mean competition ratio” value was -0.048.
With FAM120B C416 (UniProt Q96EK7) the “log2 mean competition ratio” value was -0.252.
ESD C28 (UniProt P10768) was tested, and the “log2 mean competition ratio” value was -0.349.
EPHB2 C620 (UniProt P29323) was tested, and the “log2 mean competition ratio” value was -0.357.
ESCO2 C518 (UniProt Q56NI9) was tested, and the “log2 mean competition ratio” value was -0.258.
In the case of EMG1 C66 (UniProt Q92979), the “log2 mean competition ratio” value is reported as -0.19.
In the case of EPG5 C1538 (UniProt Q9HCE0), the “log2 mean competition ratio” value is reported as -0.5.
With ESRP2 C86 (UniProt Q9H6T0) the “log2 mean competition ratio” value was -0.188.
For ERCC5 C529 (UniProt P28715), the “log2 mean competition ratio” value was 0.105.
In the case of EXD2 C566 (UniProt Q9NVH0), the “log2 mean competition ratio” value is reported as 0.246.
For EXOSC8 C22 (UniProt Q96B26), the “log2 mean competition ratio” value was 0.23.
For ETF1 C302 (UniProt P62495), the “log2 mean competition ratio” value was -0.0339.
In the case of EPC1 C566 (UniProt Q9H2F5), the “log2 mean competition ratio” value is reported as -0.0139.
For ESCO1 C515, the “log2 mean competition ratio” value was 0.00772.
For ERCC6 C143, the “log2 mean competition ratio” value was -0.126.
EXOSC10 C73 (UniProt Q01780) was tested, and the “log2 mean competition ratio” value was 0.225.
In the case of EXOC5 C295 (UniProt O00471), the “log2 mean competition ratio” value is reported as -0.0224.
For ELP2 C746 (UniProt Q6IA86), the “log2 mean competition ratio” value was 0.0781.
With FANCL C12 (UniProt Q9NW38) the “log2 mean competition ratio” value was -0.059.
With FAM241A C2 (UniProt Q8N8J7) the “log2 mean competition ratio” value was -0.088.
With ERI1 C75 (UniProt Q8IV48) the “log2 mean competition ratio” value was 0.25.

Same assay, conditions: 200 µM; treatment time: 4 h; cell line lysate: HEK293T
For FANCF C332 (UniProt Q9NPI8), the “log2 mean competition ratio” value was -0.176.
With FANCI C875 (UniProt Q9NVI1) the “log2 mean competition ratio” value was 0.00955.
For ELP1 C744 (UniProt O95163), the “log2 mean competition ratio” value was -0.311.
In the case of ELP1 C820 (UniProt O95163), the “log2 mean competition ratio” value is reported as 0.397.
In the case of EXOSC3 C67 (UniProt Q9NQT5), the “log2 mean competition ratio” value is reported as -0.207.
In the case of FAM91A1 C141 (UniProt Q658Y4), the “log2 mean competition ratio” value is reported as 0.0357.
With EMSY C194 (UniProt Q7Z589) the “log2 mean competition ratio” value was -0.0247.
In the case of FAM117B C483 (UniProt Q6P1L5), the “log2 mean competition ratio” value is reported as -0.103.
EXOC4 C100 (UniProt Q96A65) was tested, and the “log2 mean competition ratio” value was -0.176.
In the case of ETAA1 C637(C666) (UniProt Q9NY74), the “log2 mean competition ratio” value is reported as 0.0186.
ELP1 C23 (UniProt O95163) was tested, and the “log2 mean competition ratio” value was -0.174.
FAM120B C499 (UniProt Q96EK7) was tested, and the “log2 mean competition ratio” value was -0.0146.
ERCC8 C88 (UniProt Q13216) was tested, and the “log2 mean competition ratio” value was -0.16.
EME1 C248 (UniProt Q96AY2) was tested, and the “log2 mean competition ratio” value was 0.178.
For ETV6 C8 (UniProt P41212), the “log2 mean competition ratio” value was -0.174.
With EPC1 C797 (UniProt Q9H2F5) the “log2 mean competition ratio” value was -0.0729.
For FAM120B C416 (UniProt Q96EK7), the “log2 mean competition ratio” value was 0.0595.
With ESD C28 (UniProt P10768) the “log2 mean competition ratio” value was -0.149.
For EPHB2 C620 (UniProt P29323), the “log2 mean competition ratio” value was -0.0712.
In the case of ESCO2 C518 (UniProt Q56NI9), the “log2 mean competition ratio” value is reported as 0.203.
EPHA3 C760 (UniProt P29320) was tested, and the “log2 mean competition ratio” value was 0.0969.
In the case of EMG1 C66 (UniProt Q92979), the “log2 mean competition ratio” value is reported as 0.0405.
In the case of ESRP2 C86 (UniProt Q9H6T0), the “log2 mean competition ratio” value is reported as -0.279.
ERCC5 C529 (UniProt P28715) was tested, and the “log2 mean competition ratio” value was -0.448.
For EXD2 C566 (UniProt Q9NVH0), the “log2 mean competition ratio” value was -0.244.
EXOSC8 C22 (UniProt Q96B26) was tested, and the “log2 mean competition ratio” value was 0.124.
ETF1 C302 (UniProt P62495) was tested, and the “log2 mean competition ratio” value was -0.088.
For EPC1 C566 (UniProt Q9H2F5), the “log2 mean competition ratio” value was 0.184.
With ESCO1 C515 the “log2 mean competition ratio” value was -0.0375.
With ERCC6 C143 the “log2 mean competition ratio” value was -0.389.
In the case of EXOSC10 C73 (UniProt Q01780), the “log2 mean competition ratio” value is reported as -0.112.
With EXOC5 C295 (UniProt O00471) the “log2 mean competition ratio” value was -0.143.
With ELP2 C746 (UniProt Q6IA86) the “log2 mean competition ratio” value was -0.294.
With FANCL C12 (UniProt Q9NW38) the “log2 mean competition ratio” value was 0.329.
In the case of FAM241A C2 (UniProt Q8N8J7), the “log2 mean competition ratio” value is reported as 0.0723.
ERI1 C75 (UniProt Q8IV48) was tested, and the “log2 mean competition ratio” value was 0.167.
